From publication PMC12662691, “DDX3X Promotes Rotavirus Infection and Serves as an Antiviral Target” (Transboundary and Emerging Diseases, 2025)
No constants are given. Whether binding was seen depends on the method and setting. Binding seen in cells or lysates may run through a third protein. Here binding means that the protein was enriched with, or labelled near, the bait; the list need not be complete.

B1: DDX46 (protein, UniProt Q7L014 1-1031)
chain: MGRESRHYRKRSASRGRSGSRSRSRSPSDKRSKRGDDRRSRSRDRDRRRERSRSRDKRRSRSRDRKRLRRSRSRERDRSRERRRSRSRDRRRSRSRSRGRRSRSSSPGNKSKKTENRSRSKEKTDGGESSKEKKKDKDDKEDEKEKDAGNFDQNKLEEEMRKRKERVEKWREEQRKKAMENIGELKKEIEEMKQGKKWSLEDDDDDEDDPAEAEKEGNEMEGEELDPLDAYMEEVKEEVKKFNMRSVKGGGGNEKKSGPTVTKVVTVVTTKKAVVDSDKKKGELMENDQDAMEYSSEEEEVDLQTALTGYQTKQRKLLEPVDHGKIEYEPFRKNFYVEVPELAKMSQEEVNVFRLEMEGITVKGKGCPKPIKSWVQCGISMKILNSLKKHGYEKPTPIQTQAIPAIMSGRDLIGIAKTGSGKTIAFLLPMFRHIMDQRSLEEGEGPIAVIMTPTRELALQITKECKKFSKTLGLRVVCVYGGTGISEQIAELKRGAEIIVCTPGRMIDMLAANSGRVTNLRRVTYVVLDEADRMFDMGFEPQVMRIVDNVRPDRQTVMFSATFPRAMEALARRILSKPIEVQVGGRSVVCSDVEQQVIVIEEEKKFLKLLELLGHYQESGSVIIFVDKQEHADGLLKDLMRASYPCMSLHGGIDQYDRDSIINDFKNGTCKLLVATSVAARGLDVKHLILVVNYSCPNHYEDYVHRAGRTGRAGNKGYAYTFITEDQARYAGDIIKALELSGTAVPPDLEKLWSDFKDQQKAEGKIIKKSSGFSGKGFKFDETEQALANERKKLQKAALGLQDSDDEDAAVDIDEQIESMFNSKKRVKDMAAPGTSSVPAPTAGNAEKLEIAKRLALRINAQKNLGIESQDVMQQATNAILRGGTILAPTVSAKTIAEQLAEKINAKLNYVPLEKQEEERQDGGQNESFKRYEEELEINDFPQTARWKVTSKEALQRISEYSEAAITIRGTYFPPGKEPKEGERKIYLAIESANELAVQKAKAEITRLIKEELIRLQNSYQPTNKGRYKVL
B2: DHX57 (protein, UniProt Q6P158 1-1386)
chain: MSSSVRRKGKPGKGGGKGSSRGGRGGRSHASKSHGSGGGGGGGGGGGGGNRKASSRIWDDGDDFCIFSESRRPSRPSNSNISKGESRPKWKPKAKVPLQTLHMTSENQEKVKALLRDLQEQDADAGSERGLSGEEEDDEPDCCNDERYWPAGQEPSLVPDLDPLEYAGLASVEPYVPEFTVSPFAVQKLSRYGFNTERCQAVLRMCDGDVGASLEHLLTQCFSETFGERMKISEAVNQISLDECMEQRQEEAFALKSICGEKFIERIQNRVWTIGLELEYLTSRFRKSKPKESTKNVQENSLEICKFYLKGNCKFGSKCRFKHEVPPNQIVGRIERSVDDSHLNAIEDASFLYELEIRFSKDHKYPYQAPLVAFYSTNENLPLACRLHISEFLYDKALTFAETSEPVVYSLITLLEEESEIVKLLTNTHHKYSDPPVNFLPVPSRTRINNPACHKTVIPNNSFVSNQIPEVEKASESEESDEDDGPAPVIVENESYVNLKKKISKRYDWQAKSVHAENGKICKQFRMKQASRQFQSILQERQSLPAWEERETILNLLRKHQVVVISGMTGCGKTTQIPQFILDDSLNGPPEKVANIICTQPRRISAISVAERVAKERAERVGLTVGYQIRLESVKSSATRLLYCTTGVLLRRLEGDTALQGVSHIIVDEVHERTEESDFLLLVLKDIVSQRPGLQVILMSATLNAELFSDYFNSCPVITIPGRTFPVDQFFLEDAIAVTRYVLQDGSPYMRSMKQISKEKLKARRNRTAFEEVEEDLRLSLHLQDQDSVKDAVPDQQLDFKQLLARYKGVSKSVIKTMSIMDFEKVNLELIEALLEWIVDGKHSYPPGAILVFLPGLAEIKMLYEQLQSNSLFNNRRSNRCVIHPLHSSLSSEEQQAVFVKPPAGVTKIIISTNIAETSITIDDVVYVIDSGKMKEKRYDASKGMESLEDTFVSQANALQRKGRAGRVASGVCFHLFTSHHYNHQLLKQQLPEIQRVPLEQLCLRIKILEMFSAHNLQSVFSRLIEPPHTDSLRASKIRLRDLGALTPDERLTPLGYHLASLPVDVRIGKLMLFGSIFRCLDPALTIAASLAFKSPFVSPWDKKEEANQKKLEFAFANSDYLALLQAYKGWQLSTKEGVRASYNYCRQNFLSGRVLQEMASLKRQFTELLSDIGFAREGLRAREIEKRAQGGDGVLDATGEEANSNAENPKLISAMLCAALYPNVVQVKSPEGKFQKTSTGAVRMQPKSAELKFVTKNDGYVHIHPSSVNYQVRHFDSPYLLYHEKIKTSRVFIRDCSMVSVYPLVLFGGGQVNVQLQRGEFVVSLDDGWIRFVAASHQVAELVKELRCELDQLLQDKIKNPSIDLCTCPRGSRIISTIVKLVTTQ

Target: VP4 used as TurboID proximity labelling bait (MYAS33 RV strain) (rotavirus A, strain MYAS33 (isolated from bats))
Assay: proximity labelling; TurboID (promiscuous biotin ligase) with VP4 of the MYAS33 RV strain as bait; biotin-labelled host proteins identified; dataset iProX IPX0007242000, experiment described in ref. 19

Row | Binder | binding
1 | B1 | binds
2 | B2 | binds
